The values below come from patent publication US20260364175A1, “COMPOSITIONS FOR DRUG ADMINISTRATION” (Aegis Therapeutics, LLC, priority 2018, published 2026).

The conditions of series [1]: oral doses; cited from earlier work.
For series [2] the following is noted: fast-dispersing tablets 50 mg with 1% to 2% alkylsaccharide.

SMILES strings stand for the structures.

As to `CN(C)CCOC(c1ccccc1)c1ccccc1` [Diphenhydramine], the “time to peak plasma concentrations” value in series [1] was 1 to 4 h. Besides, in series [2], the first-pass metabolism entry is “less first-pass metabolism”.
